From PubChem BioAssay AID328 (DTP/NCI, 2004)
The list does not hold the whole screen: it gathers tests that were run many times, whatever their T/C, doses with no T/C, and many T/C values between a quarter and a half above the control. Further doses and runs are listed elsewhere. T/C: endpoint of the treated group in % of that of the vehicle group. Some doses have a count of surviving animals in place of a T/C: the source files T/C as zero there, which appears to mark a toxic dose or a test without result, not a measured value. Some survivor counts are full or nearly so, which does not show that the dose was tolerated: the source hardly ever lists a survival T/C far under the control, and the zero likely stands for such cases as well. Survivors were counted at the toxicity check, usually on the fifth day, unless a day is given; later deaths do not show. Schedules are NCI's codes, read here as Q, the interval in days (D) or hours (H), X, the number of doses. Some entries hold several experiments; their values stand side by side, smallest first. Where survival is the endpoint, the PubChem record calls one and a half times the control and up active, and a quarter to a half above the control has no call in these data; cut-offs in other NCI protocols can differ. Additions like (4×) count equal records among those shown. Some T/C values carry the count of animals alive at the toxicity check (mostly the fifth day); without a count, all were alive then.

Tested on: BDF1 mice, P388 leukemia ip, median survival T/C
Experiment: NCI In Vivo Anticancer Drug Screen. Data for tumor model P388 Leukemia (intraperitoneal) in B6D2F1 (BDF1) mice
Settings: T/C endpoint: median survival time, higher T/C = longer survival
Outline: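 Antitumour effect was judged in vivo: survival in drug-treated mice, normalised to that of vehicle-dosed controls, gives the reported T/C.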

[1] = dose: 200.0 mg/kg/injection, schedule: Q01DX009 (ip), vehicle: saline with Tween-80
[2] = dose: 400.0 mg/kg/injection, schedule: Q01DX009 (ip), vehicle: saline with Tween-80
[3] = dose: 100.0 mg/kg/injection, schedule: Q04DX003 (ip), vehicle: saline with Tween-80
[4] = dose: 100.0 mg/kg/injection, schedule: Q01DX009 (ip), vehicle: saline with Tween-80
[5] = dose: 400.0 mg/kg/injection, schedule: Q04DX003 (ip), vehicle: saline
[6] = dose: 100.0 mg/kg/injection, schedule: Q01DX009 (ip), vehicle: Klucel (hydroxypropylcellulose) (HPC)
[7] = dose: 200.0 mg/kg/injection, schedule: Q04DX003 (ip), vehicle: saline
[8] = dose: 25.0 mg/kg/injection, schedule: Q01DX009 (ip), vehicle: saline with Tween-80
[9] = dose: 50.0 mg/kg/injection, schedule: Q01DX009 (ip), vehicle: saline with Tween-80
[10] = dose: 200.0 mg/kg/injection, schedule: Q04DX003 (ip), vehicle: saline with Tween-80

C/C(=C\COc1ccc2ccc(=O)oc2c1)C1=CC(=O)C(C)(C)O1
T/C [1]: 130 % of control | T/C [2]: 130 % of control

CS(=O)(=O)OCC(=O)NCCNC(=O)COS(C)(=O)=O
T/C [3]: 142 % of control [5 of 6 alive] | survivor count (dose: 600.0 mg/kg/injection, schedule: Q04DX003 (ip), vehicle: saline with Tween-80): 4 of 6

NC(=S)N/N=C\c1c[nH]c2nccnc12
survivor count (dose: 200.0 mg/kg/injection, schedule: Q01DX009 (ip), vehicle: water): 6 of 6

CC(=O)OCCCC/C(=C/c1cc2ccccc2c2ccccc12)[N+](=O)[O-]
survivor count (dose: 200.0 mg/kg/injection, schedule: Q01DX009 (ip), vehicle: Klucel (hydroxypropylcellulose) (HPC)): 2 of 6

Cc1ccc2[nH]c(=S)n(-c3cccc(C(F)(F)F)c3)c(=O)c2c1
survivor count [4]: 6 of 6

C[n+]1ccc(Nc2ccc(NC(=O)c3ccc(C(=O)Nc4ccc(Nc5cc[n+](C)c(N)n5)cc4)cc3)cc2)nc1N
survivor count [5]: 3 of 6

Cc1nc2c(sc(=N)n2-c2ccccc2)c(=O)[nH]1
survivor count [4]: 3 of 6 | survivor count [1]: 0 of 6

NC(=S)N/N=C\c1ncnc2nc[nH]c12
T/C (dose: 4.0 mg/kg/injection, schedule: Q01DX009 (ip), vehicle: Klucel (hydroxypropylcellulose) (HPC)): 130 % of control | T/C (dose: 8.0 mg/kg/injection, schedule: Q01DX009 (ip), vehicle: Klucel (hydroxypropylcellulose) (HPC)): 126 % of control | T/C (dose: 16.0 mg/kg/injection, schedule: Q01DX009 (ip), vehicle: Klucel (hydroxypropylcellulose) (HPC)): 142 % of control [4 of 6 alive] | survivor count (dose: 32.0 mg/kg/injection, schedule: Q01DX009 (ip), vehicle: Klucel (hydroxypropylcellulose) (HPC)): 1 of 6 | survivor count (dose: 64.0 mg/kg/injection, schedule: Q01DX009 (ip), vehicle: Klucel (hydroxypropylcellulose) (HPC)): 0 of 6 and 6 of 6

CCOC(=O)C1(C(=O)OCC)COC(C)(C)OC1
T/C [6]: 130 % of control | T/C [5]: 131 % of control

O=P(CCCl)(OCCCl)N1CCCCC1 (stereo not drawn)
T/C [7]: 126 % of control

Cc1cccc2nc(Oc3ccccc3)nc(=O)n12
survivor count [1]: 0 of 6

O=[N+]([O-])c1ccc(Oc2cc(Cl)c(Cl)cc2Cl)c([N+](=O)[O-])c1
survivor count (dose: 100.0 mg/kg/injection, schedule: Q01DX009 (ip), vehicle: saline sonified): 6 of 6

C=C1C(=O)O[C@@H]2/C=C(\CO)CC/C=C(\C)C[C@H](OC(=O)C(C)CO)[C@@H]12 (stereo partly drawn)
T/C (dose: 5.5 mg/kg/injection, schedule: Q01DX009 (ip), vehicle: alcohol): 131 % of control | T/C (dose: 11.0 mg/kg/injection, schedule: Q01DX009 (ip), vehicle: alcohol): 140 % of control | survivor count (dose: 22.0 mg/kg/injection, schedule: Q01DX009 (ip), vehicle: alcohol): 3 of 6

CN=C(N)c1ccc(N=C(N)c2ccc(N=C(N)c3ccc(N=C(O)c4cccc(C(O)=Nc5ccc(C(N)=Nc6ccc(C(N)=Nc7ccc(C(N)=NC)cc7)cc6)cc5)c4)cc3)cc2)cc1
T/C (dose: 2.6 mg/kg/injection, schedule: Q04DX003 (ip), vehicle: saline with Tween-80): 126 % of control | T/C (dose: 6.0 mg/kg/injection, schedule: Q01DX009 (ip), vehicle: saline with Tween-80): 145 % of control | T/C (dose: 6.0 mg/kg/injection, schedule: Q04DX003 (ip), vehicle: saline with Tween-80): 126 % of control | T/C [8]: 128, 227, 250 % of control (2×) | survivor count [9]: 6 of 6 | survivor count [4]: 6 of 6

O=[N+]([O-])c1ccc(-n2[nH]nnc2=S)cc1
T/C [10]: 130 % of control

O=[N+]([O-])c1ccc(C(O)Nc2nccs2)o1 (stereo not drawn)
T/C [8]: 135 % of control [5 of 6 alive] | T/C [9]: 130 % of control | survivor count [4]: 0 of 6 | survivor count [3]: 3 of 6 | survivor count [10]: 1 of 6

COC1=CC=C2C3Cc4ccc(OC)c(O)c4C2(C1)CN3C (stereo not drawn)
survivor count (dose: 12.5 mg/kg/injection, schedule: Q01DX009 (ip), vehicle: Klucel (hydroxypropylcellulose) (HPC)): 6 of 6 | survivor count (dose: 50.0 mg/kg/injection, schedule: Q01DX009 (ip), vehicle: Klucel (hydroxypropylcellulose) (HPC)): 4 of 6 | survivor count [6]: 2 of 6

O=C(C(=O)c1ccc(Cl)cc1)c1ccc(Cl)cc1
survivor count (dose: 50.0 mg/kg/injection, schedule: Q04DX003 (ip), vehicle: other): 6 of 6

CN(C)CCCN1c2ccc(O)cc2Sc2ccc(Cl)cc21
survivor count (dose: 50.0 mg/kg/injection, schedule: Q01DX009 (ip), vehicle: other): 4 of 10 | survivor count (dose: 100.0 mg/kg/injection, schedule: Q01DX009 (ip), vehicle: other): 0 of 10

CC(=O)OC1CCC2(C)CCCC(O)C2(O)C1 (stereo not drawn)
survivor count [1]: 6 of 6

ClC(Cl)(Cl)SSC(=Nc1ccccc1)SSC(Cl)(Cl)Cl
survivor count [1]: 0 of 6

CCCCCCCCC(=O)c1c(OC)oc(C=O)cc1=O
T/C (dose: 9.38 mg/kg/injection, schedule: Q01DX009 (ip), vehicle: Klucel (hydroxypropylcellulose) (HPC)): 126 % of control | T/C (dose: 18.75 mg/kg/injection, schedule: Q01DX009 (ip), vehicle: Klucel (hydroxypropylcellulose) (HPC)): 126 % of control | survivor count (dose: 75.0 mg/kg/injection, schedule: Q01DX009 (ip), vehicle: Klucel (hydroxypropylcellulose) (HPC)): 6 of 6 | survivor count (dose: 150.0 mg/kg/injection, schedule: Q01DX009 (ip), vehicle: Klucel (hydroxypropylcellulose) (HPC)): 0 of 6 | survivor count (dose: 300.0 mg/kg/injection, schedule: Q01DX009 (ip), vehicle: Klucel (hydroxypropylcellulose) (HPC)): 0 of 6

Nc1ncnc2c1ncn2C(C=O)OC(C=O)CO (stereo not drawn)
T/C (dose: 2.0 mg/kg/injection, schedule: Q01DX009 (ip), vehicle: carboxymethylcellulose (CMC)): 135 % of control | T/C (dose: 2.2 mg/kg/injection, schedule: Q01DX009 (ip), vehicle: saline): 147 % of control | T/C (dose: 3.0 mg/kg/injection, schedule: Q01DX009 (ip), vehicle: saline): 148 % of control | survivor count (dose: 32.0 mg/kg/injection, schedule: Q01DX009 (ip), vehicle: carboxymethylcellulose (CMC)): 1 of 6 | survivor count (dose: 64.0 mg/kg/injection, schedule: Q01DX009 (ip), vehicle: carboxymethylcellulose (CMC)): 1 of 6 | survivor count (dose: 100.0 mg/kg/injection, schedule: Q04DX003 (ip), vehicle: saline): 5 of 6 | survivor count (dose: 160.0 mg/kg/injection, schedule: Q04DX003 (ip), vehicle: carboxymethylcellulose (CMC)): 0 of 6 | survivor count [7]: 0 of 6 | survivor count [5]: 0 of 6

CC1CC2=CC(=O)C=CC2(C)C2CCC3(C)C(O)CCC3C12 (stereo not drawn)
survivor count (dose: 12.5 mg/kg/injection, schedule: Q01DX009 (ip), vehicle: saline): 3 of 3 | survivor count (dose: 25.0 mg/kg/injection, schedule: Q01DX009 (ip), vehicle: saline): 3 of 3 | survivor count [6]: 4 of 6

CN(C)c1ccc(/C=C/c2ccccn2)cc1
survivor count [9]: 6 of 6

Nc1nc(N)c2nc(CNc3ccc(C(=O)NC(CCC(=O)O)C(=O)O)cc3)cnc2n1 (stereo not drawn)
T/C (dose: 0.1 mg/kg/injection, schedule: Q01DX010 (ip), vehicle: other): 130 % of control

c1ccc(OCC2CO2)cc1 (stereo not drawn)
T/C [2]: 125 and 146 % of control
